Measurements reported in PubChem BioAssay AID504804 (Drosophila RNAi Screening Center, 2011)
Test: 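dsRNAs that improve Kc cell survival under doxorubicin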 (primary screen). System: Drosophila Kc cells. Knock-down reagent: long dsRNA against Drosophila genes, 0.5 µg dsRNA per well. Time to read-out: 96 h (48 h knock-down, then 48 h drug). Treatment: doxorubicin 5 µg/ml for 48 h, added 48 h after dsRNA. Measured: 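Viability measured as cellular ATP by luminescence after 48 h knock-down then 48 h doxorubicin at 5 µg/ml; unnormalised plate counts for each replicate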. Direction: raw ATP luminescence: higher = more viable cells, protection from doxorubicin. Hit rule: 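z-score of 2 or more over plate mean in both duplicates, retained only when retests and separate dsRNAs confirm the protection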.
The screen tested about 19,000 reagents; this is an unselected part of those with a known target gene and a result. In the full data, 47 (0.25%) got an active call. 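Signals are raw, not normalised; exact z-scores behind calls not deposited; actives needed confirmation, so some wells reaching 2 SD are inactive.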 Reagents against one gene are numbered here.

CG14131 | raw ATP luminescence, replicate 1 = 85163; raw ATP luminescence, replicate 2 = 69963; Outcome = inactive
CG5162 | raw ATP luminescence, replicate 1 = 2.97e5; raw ATP luminescence, replicate 2 = 2.92e5; Outcome = inactive
CG31815 | raw ATP luminescence, replicate 1 = 3.08e5; raw ATP luminescence, replicate 2 = 2.32e5; Outcome = inactive
wol (wollknaeuel) | raw ATP luminescence, replicate 1 = 1.05e5; raw ATP luminescence, replicate 2 = 69790; Outcome = inactive

Continued (2 carried over from the part before).
CG31815 | raw ATP luminescence, replicate 1 = 3.08e5; raw ATP luminescence, replicate 2 = 2.32e5; Outcome = inactive
wol (wollknaeuel) | raw ATP luminescence, replicate 1 = 1.05e5; raw ATP luminescence, replicate 2 = 69790; Outcome = inactive
CG7335 | raw ATP luminescence, replicate 1 = 60697; raw ATP luminescence, replicate 2 = 63253; Outcome = inactive
CG17111 | raw ATP luminescence, replicate 1 = 1.05e5; raw ATP luminescence, replicate 2 = 79600; Outcome = inactive
hbn (homeobrain) #1 | raw ATP luminescence, replicate 1 = 20467; raw ATP luminescence, replicate 2 = 28613; Outcome = inactive
hbn (homeobrain) #2 | raw ATP luminescence, replicate 1 = 67727; raw ATP luminescence, replicate 2 = 52170; Outcome = inactive
hbn (homeobrain) #3 | raw ATP luminescence, replicate 1 = 51497; raw ATP luminescence, replicate 2 = 58140; Outcome = inactive
Tm2 (Tropomyosin 2) | raw ATP luminescence, replicate 1 = 80040; raw ATP luminescence, replicate 2 = 61330; Outcome = inactive
Alp7 (Alkaline phosphatase 7) | raw ATP luminescence, replicate 1 = 38260; raw ATP luminescence, replicate 2 = 44123; Outcome = inactive
CG31454 | raw ATP luminescence, replicate 1 = 67103; raw ATP luminescence, replicate 2 = 58970; Outcome = inactive
